Reference: paper PMC9168619 (The Journal of Biological Chemistry, 2022)
Like-named read-outs stand apart in the source and are kept apart here. These are yes or no findings as the source states them, for the method shown. In cells and extracts the contact can be indirect. A yes stands for co-enrichment or nearness to the bait. Other partners may have been found.

The chains behind the UniProt entries cited, without tags or fusion partners.
UniProt P35658: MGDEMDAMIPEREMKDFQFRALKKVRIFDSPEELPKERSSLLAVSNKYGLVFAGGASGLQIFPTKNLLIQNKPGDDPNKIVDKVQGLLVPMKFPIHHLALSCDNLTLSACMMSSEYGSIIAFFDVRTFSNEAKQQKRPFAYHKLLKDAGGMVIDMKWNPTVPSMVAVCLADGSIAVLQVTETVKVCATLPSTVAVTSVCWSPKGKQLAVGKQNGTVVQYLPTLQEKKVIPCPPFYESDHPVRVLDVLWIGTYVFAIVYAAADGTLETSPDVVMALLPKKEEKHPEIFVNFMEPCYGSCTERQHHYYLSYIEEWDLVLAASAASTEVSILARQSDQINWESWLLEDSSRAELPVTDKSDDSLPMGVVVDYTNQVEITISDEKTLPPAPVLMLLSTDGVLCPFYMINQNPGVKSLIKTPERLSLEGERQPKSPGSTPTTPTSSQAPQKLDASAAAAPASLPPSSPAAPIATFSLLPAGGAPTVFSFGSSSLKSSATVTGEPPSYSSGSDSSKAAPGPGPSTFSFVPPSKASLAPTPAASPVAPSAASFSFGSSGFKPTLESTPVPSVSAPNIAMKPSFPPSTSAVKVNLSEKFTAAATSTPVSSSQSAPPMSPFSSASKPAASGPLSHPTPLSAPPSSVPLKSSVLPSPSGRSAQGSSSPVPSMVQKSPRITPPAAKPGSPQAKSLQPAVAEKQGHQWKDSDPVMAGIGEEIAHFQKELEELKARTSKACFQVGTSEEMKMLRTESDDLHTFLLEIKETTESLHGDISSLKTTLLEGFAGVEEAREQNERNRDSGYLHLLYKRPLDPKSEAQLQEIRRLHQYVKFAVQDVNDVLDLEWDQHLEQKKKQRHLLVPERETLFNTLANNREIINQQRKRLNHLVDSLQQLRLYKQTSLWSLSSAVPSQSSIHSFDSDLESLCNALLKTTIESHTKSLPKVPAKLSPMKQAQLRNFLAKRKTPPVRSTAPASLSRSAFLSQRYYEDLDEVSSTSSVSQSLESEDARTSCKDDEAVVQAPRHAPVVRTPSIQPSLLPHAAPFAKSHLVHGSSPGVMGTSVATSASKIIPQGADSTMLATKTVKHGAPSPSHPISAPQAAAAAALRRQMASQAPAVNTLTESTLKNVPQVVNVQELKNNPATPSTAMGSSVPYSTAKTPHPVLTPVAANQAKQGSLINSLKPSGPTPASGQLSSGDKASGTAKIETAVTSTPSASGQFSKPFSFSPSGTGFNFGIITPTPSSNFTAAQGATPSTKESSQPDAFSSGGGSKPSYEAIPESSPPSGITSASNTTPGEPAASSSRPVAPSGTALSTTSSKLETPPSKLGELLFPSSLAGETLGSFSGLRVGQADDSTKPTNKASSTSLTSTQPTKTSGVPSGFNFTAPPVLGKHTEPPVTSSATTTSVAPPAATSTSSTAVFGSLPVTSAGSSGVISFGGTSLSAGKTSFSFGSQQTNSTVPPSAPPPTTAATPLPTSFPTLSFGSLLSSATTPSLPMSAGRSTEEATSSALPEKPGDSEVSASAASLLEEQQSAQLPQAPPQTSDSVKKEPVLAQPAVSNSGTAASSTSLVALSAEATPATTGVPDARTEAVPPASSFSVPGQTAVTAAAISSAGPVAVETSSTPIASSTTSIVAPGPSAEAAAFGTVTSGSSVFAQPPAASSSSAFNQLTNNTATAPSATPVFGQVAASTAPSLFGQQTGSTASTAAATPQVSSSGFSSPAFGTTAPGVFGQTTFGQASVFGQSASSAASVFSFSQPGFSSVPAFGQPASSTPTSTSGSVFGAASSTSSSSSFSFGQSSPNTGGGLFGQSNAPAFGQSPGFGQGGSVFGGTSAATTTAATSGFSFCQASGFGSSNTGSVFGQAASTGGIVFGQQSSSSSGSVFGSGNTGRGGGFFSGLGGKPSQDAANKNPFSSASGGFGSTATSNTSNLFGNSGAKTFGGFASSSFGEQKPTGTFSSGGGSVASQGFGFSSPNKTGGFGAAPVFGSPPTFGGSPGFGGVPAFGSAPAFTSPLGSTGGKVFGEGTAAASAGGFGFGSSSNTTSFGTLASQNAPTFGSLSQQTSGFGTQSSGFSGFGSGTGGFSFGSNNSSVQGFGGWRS

B1: Nup96 (protein, UniProt P52948 881-1817)
chain: SKYGLQDSDEEEEEHPSKTSTKKLKTAPLPPASQTTPLQMALNGKPAPPPQSQSPEVEQLGRVVELDSDMVDITQEPVLDTMLEESMPEDQEPVSASTHIASSLGINPHVLQIMKASLLTDEEDVDMALDQRFSRLPSKADTSQEICSPRLPISASHSSKTRSLVGGLLQSKFTSGAFLSPSVSVQECRTPRAASLMNIPSTSSWSVPPPLTSVFTMPSPAPEVPLKTVGTRRQLGLVPREKSVTYGKGKLLMDMALFMGRSFRVGWGPNWTLANSGEQLNGSHELENHQIADSMEFGFLPNPVAVKPLTESPFKVHLEKLSLRQRKPDEDMKLYQTPLELKLKHSTVHVDELCPLIVPNLGVAVIHDYADWVKEASGDLPEAQIVKHWSLTWTLCEALWGHLKELDSQLNEPREYIQILERRRAFSRWLSCTATPQIEEEVSLTQKNSPVEAVFSYLTGKRISEACSLAQQSGDHRLALLLSQFVGSQSVRELLTMQLVDWHQLQADSFIQDERLRIFALLAGKPVWQLSEKKQINVCSQLDWKRSLAIHLWYLLPPTASISRALSMYEEAFQNTSDSDRYACSPLPSYLEGSGCVIAEEQNSQTPLRDVCFHLLKLYSDRHYDLNQLLEPRSITADPLDYRLSWHLWEVLRALNYTHLSAQCEGVLQASYAGQLESEGLWEWAIFVLLHIDNSGIREKAVRELLTRHCQLLETPESWAKETFLTQKLRVPAKWIHEAKAVRAHMESDKHLEALCLFKAEHWNRCHKLIIRHLASDAIINENYDYLKGFLEDLAPPERSSLIQDWETSGLVYLDYIRVIEMLRHIQQVDCSGNDLEQLHIKVTSLCSRIEQIQCYSAKDRLAQSDMAKRVANLLRVVLSLHHPPDRTSDSTPDPQRVPLRLLAPHIGRLPMPEDYAMDELRSLTQSYLRELAVGSL

Experiments:
[1] = target: Nup214 (human (endogenous in HeLa)) (UniProt P35658); experiment: affinity purification with mass spectrometry
[2] = target: Nup214 (human (endogenous in HeLa)) (UniProt P35658); experiment: affinity purification with mass spectrometry; remark: listed apart in the source

| Molecule | binding [1] | binding [2] |
| --- | --- | --- |
| Nup98 (from UniProt P52948 1-880) | binds |  |
| B1 |  | binds |
